In doi:10.1101/2022.03.07.483178:
No constants are given. Whether binding was seen depends on the method and setting. In cells and extracts the contact can be indirect.

Protein sequences, listed by entry. Tags and fused reporters are not part of them.
UniProt Q6P179: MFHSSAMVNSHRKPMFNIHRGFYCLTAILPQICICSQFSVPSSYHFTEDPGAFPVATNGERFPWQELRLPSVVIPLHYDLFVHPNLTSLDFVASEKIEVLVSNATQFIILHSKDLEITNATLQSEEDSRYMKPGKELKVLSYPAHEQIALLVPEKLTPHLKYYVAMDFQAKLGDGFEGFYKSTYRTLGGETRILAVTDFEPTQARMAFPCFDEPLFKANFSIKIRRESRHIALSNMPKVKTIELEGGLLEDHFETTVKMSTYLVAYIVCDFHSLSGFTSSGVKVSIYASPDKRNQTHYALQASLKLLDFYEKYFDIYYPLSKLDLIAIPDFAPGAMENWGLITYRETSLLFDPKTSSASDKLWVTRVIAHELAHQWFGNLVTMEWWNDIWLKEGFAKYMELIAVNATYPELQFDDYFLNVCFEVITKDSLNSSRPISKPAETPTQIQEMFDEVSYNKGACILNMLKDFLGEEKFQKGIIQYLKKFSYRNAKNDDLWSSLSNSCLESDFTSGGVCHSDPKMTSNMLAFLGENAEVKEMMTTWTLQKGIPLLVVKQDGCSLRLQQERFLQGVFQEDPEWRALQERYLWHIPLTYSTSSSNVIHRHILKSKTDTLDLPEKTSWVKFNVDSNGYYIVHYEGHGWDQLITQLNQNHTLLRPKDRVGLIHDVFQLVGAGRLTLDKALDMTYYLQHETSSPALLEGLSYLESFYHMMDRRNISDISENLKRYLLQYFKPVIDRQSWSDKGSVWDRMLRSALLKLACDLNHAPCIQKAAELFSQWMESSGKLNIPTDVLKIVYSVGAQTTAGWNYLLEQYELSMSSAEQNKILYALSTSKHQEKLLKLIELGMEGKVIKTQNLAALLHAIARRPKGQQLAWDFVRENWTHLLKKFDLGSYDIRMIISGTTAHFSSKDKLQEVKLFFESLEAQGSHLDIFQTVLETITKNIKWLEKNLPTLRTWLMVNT
UniProt Q9UIQ6: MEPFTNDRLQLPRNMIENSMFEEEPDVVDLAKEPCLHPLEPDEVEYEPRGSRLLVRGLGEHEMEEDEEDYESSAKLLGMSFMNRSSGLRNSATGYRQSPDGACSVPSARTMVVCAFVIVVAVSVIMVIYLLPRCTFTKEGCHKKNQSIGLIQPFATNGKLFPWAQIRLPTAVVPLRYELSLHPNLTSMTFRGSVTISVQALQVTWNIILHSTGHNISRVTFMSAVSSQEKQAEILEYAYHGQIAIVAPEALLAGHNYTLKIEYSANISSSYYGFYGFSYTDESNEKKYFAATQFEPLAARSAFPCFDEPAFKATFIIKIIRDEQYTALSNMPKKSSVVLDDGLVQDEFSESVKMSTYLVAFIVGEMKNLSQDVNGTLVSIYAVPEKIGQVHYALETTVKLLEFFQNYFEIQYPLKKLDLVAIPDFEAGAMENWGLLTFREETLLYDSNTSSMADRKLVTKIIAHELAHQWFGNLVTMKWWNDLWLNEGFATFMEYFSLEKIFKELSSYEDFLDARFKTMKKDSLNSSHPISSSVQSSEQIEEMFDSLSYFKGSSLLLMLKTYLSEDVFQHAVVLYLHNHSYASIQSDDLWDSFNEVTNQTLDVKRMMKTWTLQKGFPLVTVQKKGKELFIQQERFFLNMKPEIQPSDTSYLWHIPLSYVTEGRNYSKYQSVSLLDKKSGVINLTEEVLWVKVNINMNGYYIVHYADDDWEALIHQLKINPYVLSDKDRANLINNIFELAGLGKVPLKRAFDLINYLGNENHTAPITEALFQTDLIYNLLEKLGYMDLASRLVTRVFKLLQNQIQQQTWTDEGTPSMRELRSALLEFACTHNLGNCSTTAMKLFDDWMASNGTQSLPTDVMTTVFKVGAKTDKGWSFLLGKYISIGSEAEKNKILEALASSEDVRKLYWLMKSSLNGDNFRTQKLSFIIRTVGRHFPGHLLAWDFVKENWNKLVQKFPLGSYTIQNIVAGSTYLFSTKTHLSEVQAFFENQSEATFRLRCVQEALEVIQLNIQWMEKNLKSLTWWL
UniProt Q9NZ08: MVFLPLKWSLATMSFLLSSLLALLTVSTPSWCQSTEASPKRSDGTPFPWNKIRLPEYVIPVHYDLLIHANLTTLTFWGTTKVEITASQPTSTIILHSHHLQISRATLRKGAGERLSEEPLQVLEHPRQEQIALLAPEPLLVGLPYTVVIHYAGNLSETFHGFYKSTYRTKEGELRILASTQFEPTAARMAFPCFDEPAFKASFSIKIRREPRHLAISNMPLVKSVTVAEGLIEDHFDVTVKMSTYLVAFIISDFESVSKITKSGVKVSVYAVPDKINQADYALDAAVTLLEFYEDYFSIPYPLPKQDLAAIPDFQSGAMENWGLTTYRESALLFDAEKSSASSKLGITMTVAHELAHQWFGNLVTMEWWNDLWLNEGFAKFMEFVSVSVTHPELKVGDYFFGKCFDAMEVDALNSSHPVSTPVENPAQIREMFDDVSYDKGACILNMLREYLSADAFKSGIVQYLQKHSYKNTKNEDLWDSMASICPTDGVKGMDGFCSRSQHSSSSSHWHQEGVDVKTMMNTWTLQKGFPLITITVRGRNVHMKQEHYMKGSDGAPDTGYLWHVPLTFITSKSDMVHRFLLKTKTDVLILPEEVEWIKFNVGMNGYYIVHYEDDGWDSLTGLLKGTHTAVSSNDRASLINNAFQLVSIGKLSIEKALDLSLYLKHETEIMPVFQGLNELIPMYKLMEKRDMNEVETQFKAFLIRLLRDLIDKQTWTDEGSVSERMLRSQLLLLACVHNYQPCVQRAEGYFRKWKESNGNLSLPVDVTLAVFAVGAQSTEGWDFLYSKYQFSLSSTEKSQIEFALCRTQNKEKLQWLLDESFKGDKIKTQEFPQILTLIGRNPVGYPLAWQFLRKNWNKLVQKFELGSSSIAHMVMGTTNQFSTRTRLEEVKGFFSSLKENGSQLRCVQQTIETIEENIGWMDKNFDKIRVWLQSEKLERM

What was measured:
[1] = target: ERAP2 full length (canonical ERAP2 protein, 115 kDa) (human (endogenous in U937)) (UniProt Q6P179); assay: co-IP
[2] = target: IRAP (human (endogenous in U937)) (UniProt Q9UIQ6); assay: co-IP

Substance: ERAP1 (from UniProt Q9NZ08 1-941) (enzyme)
- binding [1]: no binding
- binding [2]: no binding
